This note sets out measurements from patent publication US20070191324A1, “Methods for treatment or prophylaxis of aldosterone-mediated pathogenic effects in a subject using an epoxy-steroidal aldosterone antagonist” (priority 1999, published 2007).

Chains of the proteins cited; added tags and fusions are not shown. Lines headed by an entry give the natural chain unless they say otherwise; changes in a name come on top.
UniProt P01019: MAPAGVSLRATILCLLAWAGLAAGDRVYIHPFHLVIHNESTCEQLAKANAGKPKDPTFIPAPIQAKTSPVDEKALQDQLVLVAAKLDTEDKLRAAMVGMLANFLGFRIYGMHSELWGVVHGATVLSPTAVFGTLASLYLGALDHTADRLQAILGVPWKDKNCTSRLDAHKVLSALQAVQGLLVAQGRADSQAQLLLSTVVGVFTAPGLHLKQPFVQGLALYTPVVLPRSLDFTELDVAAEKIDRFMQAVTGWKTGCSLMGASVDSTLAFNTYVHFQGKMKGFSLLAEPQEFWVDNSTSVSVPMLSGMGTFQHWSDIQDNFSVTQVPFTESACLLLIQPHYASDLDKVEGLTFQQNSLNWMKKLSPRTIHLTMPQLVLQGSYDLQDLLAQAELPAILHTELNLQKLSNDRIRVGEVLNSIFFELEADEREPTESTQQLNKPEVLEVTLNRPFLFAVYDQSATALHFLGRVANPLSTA

The test system of the data set is captopril-treated saline-drinking SHRSP. Put plainly: Angiotensin II-induced renal damage in captopril-treated saline-drinking SHRSP, Protocol 2 (Example A-8). Type of data set: in vivo, rat (SHRSP/A3N). Conditions: captopril 50 mg/kg/d; angiotensin II 25 ng/min; eplerenone 100 mg/kg/d. The procedure: Animals. Studies were conducted in accordance with institutional guidelines using male SHRSP/A3N (generations F-75 to F-78), n=37, from our local colony. These animals were bred from NIH stock, derived from the SHRSP/A3N substrain described originally by Okamoto and coworkers (Okamoto K et al. Circ. Res. 34 and 35 (suppl I):I-143-I-153.). All animals were housed in a room maintained on a 12:12-h light:dark-cycle and an ambient temperature of 22±1° C. in the Animal Care Facility at New York Medical College. Rats were weaned at 4 weeks of age and allowed free access to Purina Lab Chow 5001 (Ralston Purina, St. Louis, Mo.) and tap water until the initiation of experimental protocols.
SHRSP were placed on Stroke-Prone Rodent Diet (#39-288, Zeigler Bros Inc., Gardners, Pa.) and 1% NaCl drinking solution ad libitum starting at 8.3 weeks of age. […] Systolic blood pressure and heart rate were measured each week. […]
Assays and Analyses. Systolic blood pressure and heart rate of awake animals were measured by tail-cuff plethysmography using a Natsume KN-210 manometer and tachometer (Peninsula Laboratories Inc., Belmont, Calif.). […] Urinary protein concentration was determined by the sulfosalicylic acid turbidity method. Plasma aldosterone was measured by radioimmunoassay using ^125I-aldosterone as a tracer (Coat-a Count Aldosterone, Diagnostic Products Co., Los Angeles, Calif.). […]

For “Angiotensin II: Angiotensin II (human type) infused by osmotic minipump (DRVYIHPF; Angiotensin-2; UniProt P01019 25-32, looked up)”, the “absolute kidney weight at autopsy” value was determined as 2.12 ± 0.06 g and the “body weight at the end of the experiment” value amounted to 223 ± 7 g.
